The record followed here is PubChem BioAssay AID256 (DTP/NCI, 2004).

The subject of this assay is CD2F1 mice, L1210 leukemia ip, survival T/C. The experiment in a line: NCI In Vivo Anticancer Drug Screen. Data for tumor model L1210 Leukemia (intraperitoneal) in CD2F1 (CDF1) mice. As to conditions: higher T/C = longer survival. Put shortly: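 Antitumor effect is scored in animals hosting a serially transplanted tumor. Values compare compound-dosed animals against vehicle-only controls as a simple quotient.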

Setting [1] is: T/C endpoint: mean survival time, dose: 64.0 mg/kg/injection, schedule: Q01DX009 (ip), vehicle: saline.
The mark [2] stands for this setting: T/C endpoint: mean survival time, dose: 64.0 mg/kg/injection, schedule: Q04DX003 (ip), vehicle: saline with Tween-80.
Setting [3] is: T/C endpoint: mean survival time, dose: 128.0 mg/kg/injection, schedule: Q01DX009 (ip), vehicle: Klucel (hydroxypropylcellulose) (HPC).
Where [4] appears, read: T/C endpoint: mean survival time, dose: 128.0 mg/kg/injection, schedule: Q04DX003 (ip), vehicle: saline with Tween-80.
[5] abbreviates: T/C endpoint: mean survival time, dose: 256.0 mg/kg/injection, schedule: Q01DX001 (ip), vehicle: saline with Tween-80.
Setting [6] is: T/C endpoint: mean survival time, dose: 300.0 mg/kg/injection, schedule: Q01DX001 (ip), vehicle: saline.
The mark [7] stands for this setting: T/C endpoint: mean survival time, dose: 100.0 mg/kg/injection, schedule: Q04DX003 (ip), vehicle: saline with Tween-80.
The mark [8] stands for this setting: T/C endpoint: mean survival time, dose: 200.0 mg/kg/injection, schedule: Q04DX003 (ip), vehicle: saline with Tween-80.
Where [9] appears, read: T/C endpoint: mean survival time, dose: 400.0 mg/kg/injection, schedule: Q04DX003 (ip), vehicle: saline with Tween-80.
Setting [10] is: T/C endpoint: mean survival time, dose: 400.0 mg/kg/injection, schedule: Q01DX001 (ip), vehicle: saline.
Setting [11] is: T/C endpoint: mean survival time, dose: 100.0 mg/kg/injection, schedule: Q01DX009 (ip), vehicle: saline with Tween-80.
Where [12] appears, read: T/C endpoint: mean survival time, dose: 100.0 mg/kg/injection, schedule: Q04DX002 (ip), vehicle: saline with Tween-80.
[13] abbreviates: T/C endpoint: mean survival time, dose: 200.0 mg/kg/injection, schedule: Q01DX009 (ip), vehicle: saline with Tween-80.

The list does not hold the whole screen: it gathers tests that were run many times, whatever their T/C, doses with no T/C, and many T/C values between a quarter and a half above the control. Further doses and runs are listed elsewhere. T/C is the treated group as % of the vehicle group. Some doses have a count of surviving animals in place of a T/C: the source holds a T/C of zero for them, seemingly a mark for toxic or unscored doses. Some doses without a T/C left all or most animals alive at the check, yet need not have been tolerated: the source hardly ever lists a survival T/C far under the control, and the zero likely stands for such cases as well. Survivors were counted at the toxicity check, usually on the fifth day, unless a day is given; later deaths do not show. Schedule codes are those of the source, read here as Q, the interval in days (D) or hours (H), X, the number of doses. Where survival is the endpoint, the PubChem record calls one and a half times the control and up active, and a quarter to a half above the control has no call in these data; cut-offs in other NCI protocols can differ. Some entries hold several experiments; the values are given in rising order. Marks such as (2×) give the number of equal values in this list. Some T/C values carry the count of animals alive at the toxicity check (mostly the fifth day); where none is given, no animal had died by that day.

Consider `O=S(=O)(O)Sc1ncnc2nc[nH]c12`, for which the T/C is, setting by setting: (T/C endpoint: mean survival time, dose: 40.0 mg/kg/injection, schedule: Q01DX009 (ip), vehicle: saline) 139 % of control; (T/C endpoint: mean survival time, dose: 80.0 mg/kg/injection, schedule: Q01DX009 (ip), vehicle: saline) 146 % of control; (T/C endpoint: mean survival time, dose: 160.0 mg/kg/injection, schedule: Q01DX009 (ip), vehicle: saline) 142 % of control; (T/C endpoint: median survival time, dose: 25.0 mg/kg/injection, schedule: Q01DX009 (ip), vehicle: saline) 134 % of control; (T/C endpoint: median survival time, dose: 50.0 mg/kg/injection, schedule: Q01DX009 (ip), vehicle: saline) 146 % of control; (T/C endpoint: median survival time, dose: 75.0 mg/kg/injection, schedule: Q04DX003 (ip), vehicle: saline) 134 % of control. In addition, the T/C (T/C endpoint: median survival time, dose: 150.0 mg/kg/injection, schedule: Q04DX003 (ip), vehicle: saline) was 142 % of control. For the same compound, the survivor count (T/C endpoint: median survival time, dose: 400.0 mg/kg/injection, schedule: Q01DX009 (ip), vehicle: saline) was 2 of 6 and the survivor count (T/C endpoint: median survival time, dose: 600.0 mg/kg/injection, schedule: Q04DX003 (ip), vehicle: saline) is given as 1 of 6.

With `CCOC(=O)C(CC(C)C)NC(=O)C(Cc1ccc(N(CCCl)CCCl)cc1)NC(C)=O` (configuration not stated), the T/C by setting is: (T/C endpoint: mean survival time, dose: 32.0 mg/kg/injection, schedule: Q01DX009 (ip), vehicle: Klucel (hydroxypropylcellulose) (HPC)) 130 % of control; (T/C endpoint: mean survival time, dose: 32.0 mg/kg/injection, schedule: Q01DX009 (ip), vehicle: saline, evaluated on day 30) 128 % of control; (T/C endpoint: mean survival time, dose: 32.0 mg/kg/injection, schedule: Q01DX009 (ip), vehicle: saline, evaluated on day 45) 138 % of control; (T/C endpoint: mean survival time, dose: 32.0 mg/kg/injection, schedule: Q04DX003 (ip), vehicle: saline with Tween-80) 127 % of control; (T/C endpoint: mean survival time, dose: 64.0 mg/kg/injection, schedule: Q01DX001 (ip), vehicle: saline with Tween-80) 132 % of control; (T/C endpoint: mean survival time, dose: 64.0 mg/kg/injection, schedule: Q01DX009 (ip), vehicle: Klucel (hydroxypropylcellulose) (HPC)) 125 % of control. Moreover, the T/C runs as follows: under setting [1], 141 % of control; under setting [2], 133 % of control [5 of 6 alive]; (T/C endpoint: mean survival time, dose: 64.0 mg/kg/injection, schedule: Q04DX003 (ip), vehicle: saline) 133 % of control; (T/C endpoint: mean survival time, dose: 128.0 mg/kg/injection, schedule: Q01DX001 (ip), vehicle: saline with Tween-80) 140 % of control; (T/C endpoint: mean survival time, dose: 128.0 mg/kg/injection, schedule: Q01DX001 (ip), vehicle: saline) 138 % of control; under setting [3], 130 % of control. Further, the T/C reads like this: under setting [4], 127 and 142 % of control; under setting [5], 132 % of control. Also, the survivor count under setting [1] is given as 3 of 6; the survivor count under setting [2] is given as 6 of 6; the survivor count under setting [3] is 1 of 6; the survivor count under setting [4] was 4 of 6; the survivor count under setting [5] is on record as 2 of 6; the survivor count (T/C endpoint: mean survival time, dose: 256.0 mg/kg/injection, schedule: Q01DX009 (ip), vehicle: saline) is reported as 4 of 10. The survivor count is 2 of 6 (T/C endpoint: mean survival time, dose: 256.0 mg/kg/injection, schedule: Q04DX003 (ip), vehicle: saline with Tween-80); 3 of 10 (T/C endpoint: mean survival time, dose: 512.0 mg/kg/injection, schedule: Q01DX001 (ip), vehicle: saline); 0 of 6 (T/C endpoint: mean survival time, dose: 512.0 mg/kg/injection, schedule: Q04DX003 (ip), vehicle: saline with Tween-80); 3 of 10 (T/C endpoint: mean survival time, dose: 512.0 mg/kg/injection, schedule: Q04DX003 (ip), vehicle: saline); 1 of 10 (T/C endpoint: mean survival time, dose: 1024.0 mg/kg/injection, schedule: Q01DX001 (ip), vehicle: saline).

In the case of `C=CCON`, the survivor count is reported as 0 of 6 (T/C endpoint: mean survival time, dose: 150.0 mg/kg/injection, schedule: Q01DX001 (ip), vehicle: saline) and 0 of 6 under setting [6].

As to `CN1C(=O)CN=C(c2ccccc2)c2cc(Cl)ccc21`, the survivor count (T/C endpoint: mean survival time, dose: 100.0 mg/kg/injection, schedule: Q01DX009 (ip), vehicle: Klucel (hydroxypropylcellulose) (HPC)) was 3 of 3.

With `CCCCCCCCCCCCOCC[N+](C/C=C/c1ccccc1)(CCO)CCO`, the survivor count by setting is: under setting [7], 0 of 6; under setting [8], 0 of 6; under setting [9], 0 of 6.

For `C=C(Br)C(=O)O`, the survivor count under setting [10] is 0 of 6.

Regarding `C=CN1C(=O)NC2(CCCCC2)C1=O`, under setting [11], the survivor count is listed as 6 of 6.

Regarding `Cc1cc(O)c2c(c1)C(=O)C13C(=C2O)C(=O)C2C(O)C1C1C(O)C3C(=O)C3=C(O)c4c(O)cc(C)cc4C(=O)C321` (configuration not stated), the survivor count was 6 of 6 under setting [7], 2 of 6 under setting [8] and 0 of 6 under setting [9].

As for `CN(C)/N=C/c1cccc(CC(O)(C(F)(F)F)C(F)(F)F)n1`, the survivor count (T/C endpoint: mean survival time, dose: 400.0 mg/kg/injection, schedule: Q01DX001 (ip), vehicle: saline with Tween-80) is recorded as 0 of 6.

As for `CCCC(=O)NN=C(C)C`, the survivor count is reported as 6 of 6 (T/C endpoint: mean survival time, dose: 100.0 mg/kg/injection, schedule: Q04DX003 (ip), vehicle: saline sonified); 1 of 6 (T/C endpoint: mean survival time, dose: 200.0 mg/kg/injection, schedule: Q04DX003 (ip), vehicle: saline sonified); 0 of 6 (T/C endpoint: mean survival time, dose: 400.0 mg/kg/injection, schedule: Q04DX003 (ip), vehicle: saline sonified).

For `CC12C(=O)OC(=O)C1(C)C1CCC2O1` (configuration not stated), the survivor count by setting is: (T/C endpoint: mean survival time, dose: 3.13 mg/kg/injection, schedule: Q04DX002 (ip), vehicle: saline with Tween-80) 2 of 3; (T/C endpoint: mean survival time, dose: 6.25 mg/kg/injection, schedule: Q04DX002 (ip), vehicle: saline with Tween-80) 0 of 3; (T/C endpoint: mean survival time, dose: 25.0 mg/kg/injection, schedule: Q04DX002 (ip), vehicle: saline with Tween-80) 0 of 3; (T/C endpoint: mean survival time, dose: 50.0 mg/kg/injection, schedule: Q04DX002 (ip), vehicle: saline with Tween-80) 0 of 3; under setting [12], 0 of 3.

For `CN(N)C1CCCCC1`, under setting [6], the survivor count is reported as 3 of 6.

For the compound `Cc1ccc(S(=O)(=O)OC2CCCCCCCCCCC2=O)cc1` (configuration not stated), where the note is “T/C endpoint: mean survival time, dose: 200.0 mg/kg/injection, schedule: Q04DX003 (ip), vehicle: other”, the survivor count is 3 of 3.

For the compound `c1c(NC2=NCCO2)cc2c3c1CCCN3CCC2`, the survivor count under setting [9] is recorded as 2 of 6.

With `CCCCCCCCCCCCCCCOc1ccc(OCCCCCCCCCCCCCC)cc1`, the survivor count (T/C endpoint: mean survival time, dose: 100.0 mg/kg/injection, schedule: Q01DX001 (ip), vehicle: saline with Tween-80) is listed as 6 of 6.

As for `Nc1ncnc2c1ncn2C1OC(CF)C(O)C1O` (configuration not stated), under setting [10], the survivor count is 2 of 6.

For `C[N+](C)(C)/N=C/c1ccc(Cl)cc1`, the survivor count was 0 of 3 under setting [12] and 0 of 3 (T/C endpoint: mean survival time, dose: 200.0 mg/kg/injection, schedule: Q04DX002 (ip), vehicle: saline with Tween-80).

`C[C@H](CCC[C@H](C)OS(=O)(=O)c1ccccc1)OS(=O)(=O)c1ccccc1`: the T/C is 91, 98, 104, 106 % of control (T/C endpoint: mean survival time, dose: 25.0 mg/kg/injection, schedule: Q01DX009 (ip), vehicle: saline with Tween-80); 91, 97, 104 % of control (2×) (T/C endpoint: mean survival time, dose: 50.0 mg/kg/injection, schedule: Q01DX009 (ip), vehicle: saline with Tween-80); 86, 98, 108, 110 % of control under setting [11]; 91, 112, 114 % of control under setting [13]. For the same compound, the survivor count was 5 of 6 under setting [13] and 2 of 6 (T/C endpoint: mean survival time, dose: 400.0 mg/kg/injection, schedule: Q01DX009 (ip), vehicle: saline with Tween-80).
